Assay results reported in PMC12468009.
Negatives hold for the conditions tested.

Sequences of proteins named here, by UniProt entry; tags and fusion partners are left off. Residues count along the entry.
UniProt P02769, 25-607: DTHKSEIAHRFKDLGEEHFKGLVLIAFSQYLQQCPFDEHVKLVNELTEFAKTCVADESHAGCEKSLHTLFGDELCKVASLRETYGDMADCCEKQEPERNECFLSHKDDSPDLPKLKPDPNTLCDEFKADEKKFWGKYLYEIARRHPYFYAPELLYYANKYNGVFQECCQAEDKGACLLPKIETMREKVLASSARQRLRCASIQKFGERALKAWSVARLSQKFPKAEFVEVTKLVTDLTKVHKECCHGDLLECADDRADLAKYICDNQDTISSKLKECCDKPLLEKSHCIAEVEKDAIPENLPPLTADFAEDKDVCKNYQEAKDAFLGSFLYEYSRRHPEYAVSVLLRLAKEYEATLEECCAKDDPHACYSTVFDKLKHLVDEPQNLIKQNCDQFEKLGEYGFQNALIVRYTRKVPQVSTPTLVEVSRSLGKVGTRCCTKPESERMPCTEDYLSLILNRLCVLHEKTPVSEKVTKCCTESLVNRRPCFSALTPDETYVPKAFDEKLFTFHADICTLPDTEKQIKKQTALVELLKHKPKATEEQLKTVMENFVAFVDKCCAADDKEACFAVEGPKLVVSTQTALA

Assays:
[1] = target: bovine serum albumin (BSA) (bovine) (UniProt P02769); assay: dot blot; conditions: 100 µg BSA on nitrocellulose, 400 pmol aptamer in PBS, 37 °C, 5'-biotin, 1 h, membrane blocked with 5% BSA/0.01% Tween 20, QCM-D: β-LG in PBS pH 3.5, 37 °C, aptamer 0.5 µM in TRIS with 0.1% BSA for immobilization, commercial protein, label: biotin, single-stranded DNA
[2] = target: human serum albumin (HSA) (human) (UniProt P02768); assay: dot blot; conditions: 100 µg HSA on nitrocellulose, 400 pmol aptamer in PBS, 37 °C, 5'-biotin, 1 h, membrane blocked with 5% BSA/0.01% Tween 20, QCM-D: β-LG in PBS pH 3.5, 37 °C, aptamer 0.5 µM in TRIS with 0.1% BSA for immobilization, commercial protein, label: biotin, single-stranded DNA

GCCTGTTGTGAGCCTCCTAACCTGGTGTGCAAGGTGGACTCTCTTTATCTTGTTGTCAGTCTCATCACCGCATGCTTATTCTTGTCTCCC [Apt 356]
binding result [1]: no binding
binding result [2]: no binding
